Source: PubChem BioAssay AID1347075 (National Center for Advancing Translational Sciences (NCATS), 2019)
In all, about 400,000 compounds went through this assay and about 5,500 (1.4%) were called active. Inconclusive results, whose numbers are uncertain, are shown with a selection of clear calls. The call rests on the fitted dose curve; in most records, active means well fitted cell-killing curve with a large enough effect; inconclusive means small, poorly fitted or top-dose-only effect, or effect the other way; inactive means flat fitted curve, though single readings scatter. Potencies beside an inconclusive call are fits to weak or partial responses and may not hold up.

Assay: qHTS assay for MDR1-selective chemotherapeutics: Primary screen using the parental adenocarcinoma cell KB-3-1; further: nearly all actives have a fitted effect of over 60% in size
Settings: KB-3-1 viability, CellTiter-Glo ATP luminescence, 72 h; activity change, negative = cytotoxic: at 46.1 µM (top of the series)
Procedure, shortened: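 KB-3-1 cells, DMEM (no phenol red) + 10% FBS; compound by pin transfer, 72 h, 37 °C. Readout: CellTiter-Glo luminescence after 10 min. Data normalized, curve-fitted.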
On the % scale 0 is the no-effect control and ±100 the full control effect; potency means the concentration at half of the fitted maximal effect.

| SMILES | Potency | activity change, negative = cytotoxic |
| --- | --- | --- |
| Cc1nnc(NC2=NCCC2)s1 | inactive |  |
| Cn1nc(-c2ccccc2F)c2cc(C(=O)Nc3ccc4c(c3)OCCO4)sc21 | inconclusive: 16.4 µM [cytotoxic, single point] |  |
| CC(C)(C)NC(=O)COC(=O)c1ccccc1Nc1ccc(SC(F)F)cc1 | inconclusive: 25.9 µM [cytotoxic, single point] |  |
| F[B-](F)(F)c1cc2ccccc2s1 | inconclusive: 4.11 µM [cytotoxic, partial curve] |  |
| Fc1ccc(C2=Nn3c(nnc3-c3n[nH]c4c3CCC4)SC2)cc1 | inconclusive: 18.4 µM [cytotoxic, single point] |  |
| C#CCNS(=O)(=O)c1ccc(F)cc1Br | inactive |  |
| CC(C)(C)C(=O)Nc1nc(-c2ccccc2)ns1 | inconclusive: 29.1 µM [cytotoxic, single point] |  |
| Cc1oc(-c2ccccc2F)nc1CN1CCC(C(=O)NCc2cccs2)CC1 |  | inconclusive: -1.71% |
| COc1cc(OC)cc(-c2c(-c3cccs3)c3cc(-c4ccc(OC)c(OC)c4)ccc3n2C)c1 | inactive |  |
| COc1ccc(CC(=O)Nc2cccc(S(=O)(=O)N3CCCC3)c2)cc1OC | inconclusive: 25.9 µM [cytotoxic, partial curve] |  |
| Cc1oc(-c2ccccc2Cl)nc1CSc1nc2c(c(=O)[nH]1)CCC2 | inconclusive: 11.6 µM [cytotoxic, partial curve, poor fit] |  |
| Clc1ccc(CN(CC2CCCO2)C(c2cccs2)c2nnnn2C2CCCC2)cc1 (stereo unspecified) | inconclusive: 18.4 µM [cytotoxic, single point] |  |
| Cc1ccc(NC(=O)/C=C/c2ccc([N+](=O)[O-])s2)c(C)c1 | inconclusive: 2.06 µM [cytotoxic, partial curve, poor fit] |  |
| CCOc1ccc(Cn2c(=O)sc3ccccc32)cc1 | inactive |  |
| CCOC(=O)N1CCN(C(=O)COc2ccc(S(=O)(=O)NC3CCCCC3)cc2C)CC1 | inconclusive: 18.4 µM [cytotoxic, single point] |  |
| O=C(CCN1CCCCC1)NNC(=S)NC(=O)c1ccc(Br)cc1 | inconclusive: 16.4 µM [cytotoxic, single point] |  |
| O=C1C=C(c2ccc3[nH]ccc3c2)C[C@@H](c2ccc(F)cc2)C1 | inconclusive: 20.6 µM [cytotoxic, partial curve, poor fit] |  |
| Cc1cccc(N2CCN(S(=O)(=O)c3ccc4c(c3)NC(=O)CS4)CC2)c1C | inconclusive: 23.1 µM [cytotoxic, single point] |  |
| COCCCn1c(C23CC4CC(CC(C4)C2)C3)n[nH]c1=S | inactive |  |
| O=C(CSc1nc2ccccc2[nH]1)N1CCN(C(=O)c2ccco2)CC1 | inconclusive: 6.51 µM [rising, partial curve] |  |
| COc1ccc(NC(=O)CSc2nc(-c3cccc(C)c3)[nH]c2-c2ccccc2)cc1OC | inconclusive: 16.4 µM [cytotoxic, single point] |  |

Molecules from the list above with a tert-butyl group (two):

| SMILES | Potency | activity change, negative = cytotoxic |
| --- | --- | --- |
| CC(C)(C)NC(=O)COC(=O)c1ccccc1Nc1ccc(SC(F)F)cc1 | inconclusive: 25.9 µM [cytotoxic, single point] |  |
| CC(C)(C)C(=O)Nc1nc(-c2ccccc2)ns1 | inconclusive: 29.1 µM [cytotoxic, single point] |  |

Further records follow:

| SMILES | Potency | activity change, negative = cytotoxic |
| --- | --- | --- |
| CC1CCCC(NC(=O)C2c3ccccc3C(=O)N2Cc2cccs2)C1C (stereo unspecified) | inconclusive: 0.461 µM [rising, full curve, poor fit] |  |
| O=C(C[C@H]1C/C=C\CC[C@H](Cc2ccc(F)cc2)C(=O)O[C@@H](c2ccccc2)CNC1=O)N[C@@H](CO)Cc1ccccc1 | inconclusive: 29.1 µM [cytotoxic, single point] |  |
| COc1cc(OC)c(/C=C/c2nc3ccccc3o2)c(OC)c1 | inconclusive: 13 µM [rising, partial curve] |  |
| O=C(CC1CC2CCC1C2)Nc1nc(-c2ccccn2)cs1 (stereo unspecified) | inconclusive: 29.1 µM [cytotoxic, single point] |  |
| CCCOc1ccc(/C=N/Nc2cccc([N+](=O)[O-])c2)c(O)c1 | inconclusive: 16.4 µM [cytotoxic, single point] |  |
| O=C(NC1CCCCC1)c1ccc([N+](=O)[O-])o1 | inconclusive: 16.4 µM [cytotoxic, single point] |  |
| CCN(C(=O)COC(=O)c1nc(Cl)ccc1Cl)c1c(N)n(Cc2ccccc2)c(=O)[nH]c1=O | inconclusive: 16.4 µM [cytotoxic, single point] |  |
| Cc1ccc(C(=O)OCC(=O)Nc2ccc(N(C)C)cc2)cc1NC(=O)c1ccco1 | inconclusive: 14.6 µM [rising, partial curve, poor fit] |  |
| COC(=O)[C@@]12C[C@@H](CC(=O)NCC3CCCCC3)C(=O)N(Cc3ccc4c(c3)OCO4)C1=CCC(C)(C)C2 | inconclusive: 29.1 µM [cytotoxic, single point] |  |
| CCOc1ccc(-c2c(C)nn3c(C)c(C(=O)Nc4cc(C)cc(C)c4)cnc23)cc1OCC | inactive |  |
| c1ccc2c(-c3ccc(OCCN4CCCCC4)cc3)c(-c3ccsc3)sc2c1 | inconclusive: 20.6 µM [cytotoxic, single point] |  |
| CC(=O)[C@@H]1[C@@H](C)N(Cc2ccccc2)C(=O)N[C@H]1c1cccc(C(F)(F)F)c1 | inconclusive: 8.2 µM [cytotoxic, partial curve] |  |
| OC[C@H]1O[C@@H](O[C@@H]2[C@@H](CO)O[C@@](O)(CO)[C@H]2O)[C@H](O)[C@@H](O)[C@H]1O | inactive |  |
| CSc1ccccc1OCc1cc(C(=O)N(C)CC2COCCO2)no1 (stereo unspecified) | inconclusive: 18.4 µM [rising, partial curve, poor fit] |  |
| COc1ccc(C2=NN(C(=O)CCC(=O)O)C(c3ccc(OC)cc3)C2)cc1 (stereo unspecified) | inactive |  |
| Cc1[nH]n(-c2cccc(Cl)c2)c(=O)c1-c1ccc(Cl)cc1 | inconclusive: 29.1 µM [cytotoxic, single point] |  |
| COc1ccc2nc3c(cc2c1)c(NC(=O)CC(C)C)nn3CC(C)C | inactive |  |
| COc1cccc(CNc2ncc(-c3ccccc3)n2C)c1 | inconclusive: 20.6 µM [cytotoxic, single point] |  |
| CCC(=O)Nc1ccccc1-c1nc2ccccc2n(CC(=O)Nc2ccccc2OC)c1=O | inconclusive: 29.1 µM [cytotoxic, single point] |  |
| O=C1C=C(Nc2cccc3cccnc23)c2ccccc2C1=O | active: 5.8 µM |  |
